No constants are given. Whether binding was seen depends on the method and setting. Binding seen in cells or lysates may run through a third protein. Some binding calls cover weakened binding; strength is not graded here. Where a sequence is shown, tags or fusion partners need not be part of it.
Target: T1, endogenous NDRG2 (N-myc downstream regulated gene 2) (mouse (endogenous in cultured mouse astrocytes and mouse brain)) (UniProt Q9QYG0)
T1 sequence: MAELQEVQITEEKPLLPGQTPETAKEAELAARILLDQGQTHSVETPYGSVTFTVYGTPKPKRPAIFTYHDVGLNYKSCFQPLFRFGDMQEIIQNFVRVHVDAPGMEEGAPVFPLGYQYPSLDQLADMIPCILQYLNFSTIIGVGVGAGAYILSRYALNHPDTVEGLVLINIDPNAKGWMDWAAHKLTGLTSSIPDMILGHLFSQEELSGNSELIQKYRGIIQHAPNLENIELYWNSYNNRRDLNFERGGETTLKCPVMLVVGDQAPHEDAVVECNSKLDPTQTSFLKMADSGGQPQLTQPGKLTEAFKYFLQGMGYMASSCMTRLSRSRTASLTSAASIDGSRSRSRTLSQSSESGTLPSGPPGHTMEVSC
Test: co-IP; synthetic TAT peptide added to cultured WT astrocytes for 2 h, read out as loss of the endogenous NDRG2-Na+/K+-ATPase β1 co-precipitate (competition); only the binder purified

Substance: TAT-β1(244–263) (from UniProt P14094 244-263) (peptide)
- binding: binds

From publication PMC7067740
